Experimental data from US20250352497A1, “BIGUANIDE BASE COMPOSITIONS, BIGUANIDE BASE PHARMACEUTICAL COMPOSITIONS, AND THEIR PREPARATIONS AND USES” (ADA FORSYTH INSTITUTE, INC., priority 2022, published 2025).
Some entries share one result that the patent states for a list of compounds.

Test system: model microbiome simulating human oral microbiome
Experiment: pH of model microbiome (supernatant and saliva-derived biofilm) after treatment in the presence of 2% sucrose
Type: cell-based
Settings: CPC concentrations of 50 and 100 μg/mL, 16 hr
Method: Saliva samples were collected and pooled from 5 healthy volunteers as a model microbiome simulating human oral microbiome, and used to inoculate SHI medium containing different test compositions and controls.
1 mL pooled saliva sample was added to each well of a 24-well plate that had been pre-coated with sterilized, cell-free saliva. The plate was incubated at 37° C. for 16 h in microaerobic conditions (2% O2, 5% CO2, balanced with nitrogen) to allow biofilm formation. After incubation, planktonic portion was collected, optical density was measured at 600 nm and cells were pelleted for DNA isolation. Meanwhile, 1 mL of SHI medium was added to the biofilm portion of each well, biofilm cells were dispersed by scraping and vortex to break the cell aggregates. Optical density was measured at 600 nm and cells were collected for DNA isolation.
Supernatant and biofilms prepared with the model microbiome simulating human oral microbiome according to Example III were treated with embodiments of the CHX base composition (e.g., solution embodiments of the CHX base composition prepared according to Example I (the CHX base solutions); and MSN3 prepared according to Example II(B)(ii)). […]

CCCCCCCCCCCCCCCC[n+]1ccccc1 [CPC, cetylpyridinium chloride]
pH of the biofilm: under 5.5
